{
  "source": "patent US6605639B1",
  "about": "“Ligands of nuclear receptor” (Nuclear Receptor Research, Ltd., priority 1998, dated 2003)",
  "origin": "cited, not measured here",
  "test_system": "patients",
  "conditions": "type II diabetes; cited from earlier work",
  "note": "For at least one compound, name, drawing or mass did not settle the structure.",
  "data": [
    {"smiles": "Cc1c(C)c2c(c(C)c1O)CCC(C)(COc1ccc(CC3SC(=O)NC3=O)cc1)O2", "note": "(stereo not shown) [troglitazone]", "values": [
      {"measurement": "hypotensive effect", "result": "no hypotensive effect"}
    ]}
  ]
}
